Reference: PMC7862700
This is a selection; strong and weak results do not stand in their true shares. At the low end of the ranking the order means little.

Amino acid sequences for entries named in this document (tags omitted). A change or cut given only in a name is not applied to a line headed by its entry.
UniProt O43186: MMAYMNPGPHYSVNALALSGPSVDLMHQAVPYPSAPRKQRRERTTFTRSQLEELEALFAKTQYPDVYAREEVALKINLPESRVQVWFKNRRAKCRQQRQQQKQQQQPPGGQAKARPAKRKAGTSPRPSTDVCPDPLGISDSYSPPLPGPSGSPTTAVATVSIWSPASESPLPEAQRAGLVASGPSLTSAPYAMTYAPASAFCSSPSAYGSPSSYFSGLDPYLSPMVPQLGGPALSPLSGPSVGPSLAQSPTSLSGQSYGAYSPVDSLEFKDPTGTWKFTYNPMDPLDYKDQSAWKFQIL

molecular target: CRX (UniProt O43186); test: DAPPL (digital affinity profiling via proximity ligation, sequencing); settings: 10 mM Tris-HCl pH 7.5, 50 mM NaCl, 1 mM DTT, 4% glycerol, room temperature, 30 min; GST-TFs on glutathione beads, 16-mer random dsDNA library, 0.1% …; high values mean tight binding; double strand, one strand shown; scale: fold enrichment (6-mer frequency, TF over GST control)

Row | Sequence | binding signal
1 | TCTCGG | 1.44
2 | TGCAAC | 0.92
3 | CGAAAG | 1.11
4 | TGCACT | 1.06
5 | ATAGAA | 1.28
6 | GACCTG | 0.933
7 | ACTGGC | 0.966
8 | GATTCT | 1.58
9 | AGTTCC | 0.944
10 | AATGCT | 1.26
11 | CCTGTT | 1.21
12 | CTCGTA | 1.38
13 | ATGGTT | 1.17
14 | ATGTGT | 0.882
15 | TACCCA | 1.08
16 | CCGCGT | 0.834
17 | ACATAC | 0.888
18 | TGAACT | 1.12
19 | CCGGTA | 0.834
20 | CCCGGA | 1.03

Row | Sequence | binding signal
21 | CCCTTT | 1.35
22 | CGTTCA | 0.968
23 | ACGAAC | 0.941
24 | TTTACT | 1.95
25 | TGCCCG | 0.94
26 | TCGCTT | 1.15
27 | ATGGAC | 0.909
28 | CTGCCA | 0.9
29 | ACCTCG | 0.919
30 | TATCCG | 1.95
31 | CTGAAT | 1.34
32 | CTCACT | 1.27
33 | TTCTCC | 1.51
34 | ATGAAT | 1.2
35 | TCAATA | 1.34
36 | TCTGAT | 1.55
37 | TTGGCC | 0.974
38 | GTCTAC | 0.837
39 | CTTATG | 2.2
40 | ACGCCC | 0.87

Part of the list above, as tab-separated lines.
Row	Sequence	binding signal
36	TCTGAT	1.55
37	TTGGCC	0.974
